According to patent US20100204182A1, “ECTONUCLEOTIDASE INHIBITORS” (RHEINISCHE FRIEDRICH-WILHELMS-UNIVERSITAT BONN, priority 2006, published 2010):

System: luciferase
Test: Interference with the luciferase assay for ATP determination
Conditions: in words

Structure (SMILES) | interference with the luciferase assay for ATP determination
CCN(CC)c1ncnc2c1ncn2C1OC(COP(=O)(O)OP(=O)(O)C(Br)(Br)P(=O)(O)O)C(O)C1O (stereo not drawn) [ARL67156, N^6-Diethyl-β,γ-dibromomethylene-ATP] | interferes with that assay
CCOP(=O)(Cc1ccc(NC(=O)CNC(=O)[C@H]2O[C@@H](n3ccc(=O)[nH]c3=O)C(O)C2O)cc1)OCC (stereo in doubt) [AMB246.1, 4-[2-((2S,3R,4S,5R)-5-(2,4-Dioxo-3,4-dihydropyrimidin-1(2H)-yl)-3,4-dihydroxy-tetrahydrofurane-2-carboxamido)ethaneamido]benzylphosphonic acid diethylester] | not to interfere
